Experimental data taken from publication PMC9474880.
Results are given in words; binding and its absence hold for the method and conditions named. In cells and extracts the contact can be indirect. Some results given as binding are weak or reduced against the parent protein; the word gives no strength.

Amino acid sequences for entries named in this document (tags omitted).
UniProt Q07820: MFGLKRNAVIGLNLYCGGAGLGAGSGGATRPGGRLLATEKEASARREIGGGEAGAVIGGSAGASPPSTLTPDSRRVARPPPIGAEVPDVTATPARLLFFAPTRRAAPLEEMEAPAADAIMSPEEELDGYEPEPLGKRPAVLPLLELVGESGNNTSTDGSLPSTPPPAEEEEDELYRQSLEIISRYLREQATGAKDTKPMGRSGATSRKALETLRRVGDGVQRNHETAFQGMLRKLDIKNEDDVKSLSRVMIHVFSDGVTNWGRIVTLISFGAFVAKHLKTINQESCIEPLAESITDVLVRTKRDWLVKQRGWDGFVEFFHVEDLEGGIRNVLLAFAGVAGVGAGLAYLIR

Key:
[1] = molecular target: MCL-1 (human (endogenous in primary bCAFs)), Q07820; experiment: co-IP; endogenous MCL-1 immunoprecipitated (anti-MCL-1 antibody, Protein A magnetic beads) from 200 ug of CAF lysate in CHAPS 1%, TRIS-HCl 20 mM pH 7.5, NaCl 150 mM, EDTA 1 mM; western blot for MCL-1, DRP1 or NOXA; CAFs treated or not with S63845, in presence or not of Mdivi-1; conditions: remark: other sources report otherwise
[2] = molecular target: MCL-1 (human (endogenous in primary bCAFs)) (UniProt Q07820); experiment: co-IP; as a1, CAFs treated with S63845 (MCL-1 BH3 mimetic) before lysis

Row | Binder | binding [1] | binding [2]
1 | NOXA, Q13794 1-54 (protein) MPGKKARKNAQPSPARAPAELEVECATQLRRFGDKLNFRQKLLNLISKLFCSGT | binds | –
2 | NOXA (protein, UniProt Q13794 1-54) MPGKKARKNAQPSPARAPAELEVECATQLRRFGDKLNFRQKLLNLISKLFCSGT | – | no binding (condition: CAFs treated with S63845)
